This passage reports binding results from article PMC11986451.

Chains of the proteins cited; added tags and fusions are not shown.
UniProt O43293: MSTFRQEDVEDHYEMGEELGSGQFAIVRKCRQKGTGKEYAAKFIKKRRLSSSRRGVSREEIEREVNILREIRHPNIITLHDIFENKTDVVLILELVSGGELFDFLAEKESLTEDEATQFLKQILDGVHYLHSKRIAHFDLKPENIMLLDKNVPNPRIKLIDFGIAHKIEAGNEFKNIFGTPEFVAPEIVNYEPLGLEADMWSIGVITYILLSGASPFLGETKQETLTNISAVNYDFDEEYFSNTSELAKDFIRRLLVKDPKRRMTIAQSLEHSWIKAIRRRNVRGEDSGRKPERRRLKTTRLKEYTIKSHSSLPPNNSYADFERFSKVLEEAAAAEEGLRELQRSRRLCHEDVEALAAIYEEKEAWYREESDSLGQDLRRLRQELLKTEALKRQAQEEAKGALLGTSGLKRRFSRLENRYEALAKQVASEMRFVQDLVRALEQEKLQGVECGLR
UniProt P42229: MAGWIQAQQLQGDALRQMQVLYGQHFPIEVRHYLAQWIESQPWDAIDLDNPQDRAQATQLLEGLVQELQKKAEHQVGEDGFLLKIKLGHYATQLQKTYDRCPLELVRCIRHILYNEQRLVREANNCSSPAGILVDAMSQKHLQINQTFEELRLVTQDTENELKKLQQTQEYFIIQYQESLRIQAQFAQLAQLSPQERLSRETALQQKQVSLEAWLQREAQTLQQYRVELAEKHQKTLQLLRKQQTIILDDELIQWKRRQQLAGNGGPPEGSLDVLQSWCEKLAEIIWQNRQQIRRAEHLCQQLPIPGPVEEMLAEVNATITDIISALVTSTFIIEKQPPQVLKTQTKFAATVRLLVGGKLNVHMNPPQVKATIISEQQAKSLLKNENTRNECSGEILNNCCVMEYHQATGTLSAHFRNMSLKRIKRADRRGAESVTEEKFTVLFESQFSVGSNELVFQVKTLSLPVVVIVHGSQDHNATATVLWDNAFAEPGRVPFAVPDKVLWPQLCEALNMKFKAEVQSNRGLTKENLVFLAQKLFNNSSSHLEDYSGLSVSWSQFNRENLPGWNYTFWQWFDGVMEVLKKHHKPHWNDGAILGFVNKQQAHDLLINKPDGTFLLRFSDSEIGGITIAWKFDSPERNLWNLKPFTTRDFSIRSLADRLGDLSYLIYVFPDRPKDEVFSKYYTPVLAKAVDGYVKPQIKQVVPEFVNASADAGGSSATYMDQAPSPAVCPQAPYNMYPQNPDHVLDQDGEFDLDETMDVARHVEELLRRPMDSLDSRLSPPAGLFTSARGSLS

These are yes or no findings as the source states them, for the method shown. In cells and extracts the contact can be indirect. Some results given as binding are weak or reduced against the parent protein; the word gives no strength.

The test addresses Zipper-interacting protein kinase (ZIPK) (human (endogenous in HUVEC)) (UniProt O43293). Nature of the test: co-IP; endogenous immunoprecipitation from HUVEC whole-cell lysates with anti-ZIPK or anti-STAT5A antibody, anti-IgG as negative control, protein A/G Dynabeads, 4°C overnight; western blot detection.

On to “signal transducer and activator of transcription 5A (STAT5A) (from UniProt P42229 1-794)”, for which the binding entry is given as “binds”.
